Data on one substance can be found in patent publication US20040111758A1.

Protein sequences, listed by entry. Tags and fused reporters are not part of them.
UniProt O43399: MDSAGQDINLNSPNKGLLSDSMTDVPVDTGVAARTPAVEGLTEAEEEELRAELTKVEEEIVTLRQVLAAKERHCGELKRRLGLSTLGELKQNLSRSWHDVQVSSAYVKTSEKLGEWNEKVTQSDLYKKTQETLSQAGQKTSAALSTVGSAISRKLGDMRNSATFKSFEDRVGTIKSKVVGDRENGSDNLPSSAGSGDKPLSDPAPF

These are yes or no findings as the source states them, for the method shown. Binding seen in cells or lysates may run through a third protein. Some results given as binding are weak or reduced against the parent protein; the word gives no strength. Where a sequence is shown, tags or fusion partners need not be part of it.

Experiment [1] has as its target T1, fusion protein of FLAG with HCCR-1 (FLAG-HCCR-1) (human) (UniProt Q6P1Q0).
T1 sequence: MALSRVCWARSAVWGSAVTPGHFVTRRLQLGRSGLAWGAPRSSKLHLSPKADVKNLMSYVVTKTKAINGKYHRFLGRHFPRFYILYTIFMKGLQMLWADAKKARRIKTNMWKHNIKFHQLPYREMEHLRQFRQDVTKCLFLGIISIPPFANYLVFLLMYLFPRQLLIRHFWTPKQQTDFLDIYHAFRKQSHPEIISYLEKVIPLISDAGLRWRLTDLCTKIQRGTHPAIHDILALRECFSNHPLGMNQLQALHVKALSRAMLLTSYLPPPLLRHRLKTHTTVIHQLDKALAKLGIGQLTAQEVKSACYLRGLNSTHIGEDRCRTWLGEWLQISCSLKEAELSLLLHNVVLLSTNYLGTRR
Kind of experiment: reciprocal co-immunoprecipitation (anti-FLAG or anti-GST) and western blot from co-transfected CHO cells. (In general: In western blotting, separated proteins are transferred to a membrane and probed.)

For experiment [2], the target named is T1, fusion protein of FLAG with HCCR-1 (FLAG-HCCR-1) (human). Kind of experiment: co-immunoprecipitation and western blot from co-transfected CHO cells (figure legend).

Take “fusion protein of GST with D52 (GST-TPD52L2) (from UniProt O43399 1-206)”: the binding entry in experiment [1] and in experiment [2] was “binds” each time.
